Source: publication PMC8843744
No constants are given. Whether binding was seen depends on the method and setting. Binding seen in cells or lysates may run through a third protein. A yes stands for co-enrichment or nearness to the bait. Other partners may have been found.

Sequences of proteins named here, by UniProt entry; tags and fusion partners are left off.
UniProt Q7Z4V5: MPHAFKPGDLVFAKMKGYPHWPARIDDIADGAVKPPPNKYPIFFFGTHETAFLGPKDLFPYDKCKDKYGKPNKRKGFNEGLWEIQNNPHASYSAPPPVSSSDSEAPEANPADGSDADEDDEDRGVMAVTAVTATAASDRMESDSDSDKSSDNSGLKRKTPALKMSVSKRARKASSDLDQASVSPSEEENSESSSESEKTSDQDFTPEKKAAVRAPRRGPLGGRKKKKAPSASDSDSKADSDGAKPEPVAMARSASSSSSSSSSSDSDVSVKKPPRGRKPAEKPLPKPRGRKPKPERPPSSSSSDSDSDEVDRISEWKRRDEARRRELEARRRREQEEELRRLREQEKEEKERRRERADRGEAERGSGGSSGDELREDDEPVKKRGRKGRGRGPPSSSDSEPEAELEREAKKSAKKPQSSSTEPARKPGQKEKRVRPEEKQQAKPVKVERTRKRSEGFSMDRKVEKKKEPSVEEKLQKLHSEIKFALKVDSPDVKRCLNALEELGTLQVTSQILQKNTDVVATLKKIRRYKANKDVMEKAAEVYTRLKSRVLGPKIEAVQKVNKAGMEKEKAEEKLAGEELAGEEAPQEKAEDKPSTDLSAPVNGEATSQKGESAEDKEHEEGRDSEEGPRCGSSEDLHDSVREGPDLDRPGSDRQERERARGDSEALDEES
UniProt Q8IUF8: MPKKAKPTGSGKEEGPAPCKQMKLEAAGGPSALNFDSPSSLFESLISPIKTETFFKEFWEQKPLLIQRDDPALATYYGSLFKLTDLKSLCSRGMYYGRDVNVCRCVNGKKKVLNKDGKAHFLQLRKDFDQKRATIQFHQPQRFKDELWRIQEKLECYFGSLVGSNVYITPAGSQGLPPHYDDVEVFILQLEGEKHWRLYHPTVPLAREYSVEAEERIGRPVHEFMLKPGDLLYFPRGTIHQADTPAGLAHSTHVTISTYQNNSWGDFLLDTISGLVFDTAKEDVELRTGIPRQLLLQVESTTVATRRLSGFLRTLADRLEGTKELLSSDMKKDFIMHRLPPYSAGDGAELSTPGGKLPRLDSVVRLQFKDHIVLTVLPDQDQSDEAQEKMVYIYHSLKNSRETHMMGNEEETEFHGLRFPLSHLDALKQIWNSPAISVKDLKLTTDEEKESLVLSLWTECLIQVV

Biological target: hepatoma-derived growth factor 2 (HRP2), Flag-tagged (UniProt Q7Z4V5)
Assay: affinity purification with mass spectrometry; extracts in NP-40 lysis buffer (150 mM sodium chloride, 1% NP-40, 50 mM Tris, pH 8.0) on anti-Flag M2 affinity gel at 4°C overnight; eluted with Flag peptide; silver-stained bands analysed by LC-MS/MS; empty vector as control

**Q.** “MYC-induced nuclear antigen (MINA), in the cells expressing Flag-HRP2 (from UniProt Q8IUF8 1-465)” was tested. Which binding did it give?
**A.** The binding was “binds”.
